PubChem BioAssay AID1159578, Peter MacCallum Cancer Centre, 2015

Purpose: 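Genome-wide hunt for genes controlling movement of lymphatic endothelial cells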 (primary screen)
System: human lymphatic endothelial cells
Reagent: siRNA pool against human genes, 40 nM
Duration: 48 h after transfection
Read-out: 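Cells stained with dye and imaged after a scratch; covered wound area and nuclei counted, duplicates averaged, migration set against mock wells and turned into a robust z-score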
Direction: migration robust z-score: higher = faster migration into the scratch; migration relative to mock: higher = more scratch area covered than mock; nuclei per well: higher = more cells in the well
Rule for the call: 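Pools averaging fewer than 3300 nuclei are never called; remaining pools count as changed when migration robust z lies outside -2 to 2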
Calls: active = migration changed; inactive = no migration change, or too few cells
The whole screen tested about 18,000 reagents; shown is an unselected part. About 1,030 of them (5.7%) were called active. 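Inactive calls also include pools with fewer than 3300 nuclei, whose migration was not assessed.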 The raw values are shown without normalisation.

| gene symbol | migration robust z-score | migration class with cell-count check | migration relative to mock | nuclei per well, duplicate mean | activity call |
| --- | --- | --- | --- | --- | --- |
| HSFY1 | -0.93 | migration z between -2 and 2; enough cells | 0.62 | 6267 | inactive |
| SPOP | 0.95 | migration z between -2 and 2; enough cells | 1.13 | 6028 | inactive |
| SIM1 | -0.52 | migration z between -2 and 2; enough cells | 0.7 | 5158 | inactive |
| KCNMB1 | 0.96 | migration z between -2 and 2; enough cells | 0.99 | 5274 | inactive |
| ZNF607 | -0.22 | migration z between -2 and 2; enough cells | 0.82 | 5894 | inactive |
| HTR3C | -0.16 | migration z between -2 and 2; enough cells | 0.78 | 5608 | inactive |
| H2AC15 | 0.98 | migration z between -2 and 2; enough cells | 1.14 | 5706 | inactive |
| RPE65 | -1.25 | migration z between -2 and 2; enough cells | 0.56 | 5069 | inactive |
| CALHM1 | 1.55 | migration z between -2 and 2; enough cells | 1.29 | 5180 | inactive |
| WDR35 | 0 | migration z between -2 and 2; enough cells | 0.88 | 7172 | inactive |
| HMGCL | 0.83 | migration z between -2 and 2; enough cells | 0.97 | 5867 | inactive |
| VPS4A | -1.17 | migration z between -2 and 2; enough cells | 0.58 | 5520 | inactive |
| IL7 | 0.13 | migration z between -2 and 2; enough cells | 0.83 | 7040 | inactive |
| CRHR2 | 0.8 | migration z between -2 and 2; enough cells | 0.96 | 6526 | inactive |
| IFT80 | 1.02 | migration z between -2 and 2; enough cells | 1.15 | 5419 | inactive |
| TM2D1 | 1.29 | migration z between -2 and 2; enough cells | 1.21 | 6554 | inactive |
| RP9 | -1.22 | migration z between -2 and 2; enough cells | 0.57 | 5488 | inactive |
| RTL8B | 3.77 | migration z above 2; enough cells | 1.86 | 7167 | active |
| UBL5 | -1.84 | under 3300 nuclei; migration not judged | 0.45 | 3198 | inactive |
| RBM33 | -0.68 | migration z between -2 and 2; enough cells | 0.71 | 5082 | inactive |
| STT3A | -0.86 | migration z between -2 and 2; enough cells | 0.64 | 5612 | inactive |
| ZC3H11A | -0.13 | migration z between -2 and 2; enough cells | 0.86 | 5906 | inactive |
| TMEM126A | -2.81 | migration z below -2; enough cells | 0.14 | 4490 | active |
| CHCHD7 | -1.02 | migration z between -2 and 2; enough cells | 0.62 | 6068 | inactive |
| BFSP2 | 1.59 | migration z between -2 and 2; enough cells | 1.31 | 4876 | inactive |
| ARHGAP15 | 0.58 | migration z between -2 and 2; enough cells | 1.04 | 5748 | inactive |
| CPA2 | 0.16 | migration z between -2 and 2; enough cells | 0.83 | 5048 | inactive |
| KLF15 | 0.96 | migration z between -2 and 2; enough cells | 0.99 | 6568 | inactive |
| ATP23 | 2.12 | migration z above 2; enough cells | 1.21 | 5723 | active |
| BOK | 0.36 | migration z between -2 and 2; enough cells | 0.98 | 5783 | inactive |
| SMO | 0.42 | migration z between -2 and 2; enough cells | 0.88 | 5730 | inactive |
| KRTAP10-11 | -1.83 | migration z between -2 and 2; enough cells | 0.4 | 5418 | inactive |
| PCDHA8 | -0.16 | migration z between -2 and 2; enough cells | 0.84 | 6986 | inactive |
| TMEM125 | -2.78 | migration z below -2; enough cells | 0.16 | 4851 | active |

Look-ups from the entries so far:
Under “nuclei per well, duplicate mean”, IL7 has 7040
Result for SIM1 in “migration class with cell-count check”: migration z between -2 and 2; enough cells
WDR35, nuclei per well, duplicate mean = 7172
VPS4A, migration relative to mock → 0.58
Value for KCNMB1 under “migration relative to mock”: 0.99
RPE65, migration class with cell-count check = migration z between -2 and 2; enough cells

Next reagents:
| gene symbol | migration robust z-score | migration class with cell-count check | migration relative to mock | nuclei per well, duplicate mean | activity call |
| --- | --- | --- | --- | --- | --- |
| BCR | -1.14 | migration z between -2 and 2; enough cells | 0.58 | 4730 | inactive |
| TM9SF1 | 0.5 | migration z between -2 and 2; enough cells | 1.02 | 5634 | inactive |
| CYSLTR2 | -0.08 | migration z between -2 and 2; enough cells | 0.79 | 4285 | inactive |
| COQ5 | -0.46 | migration z between -2 and 2; enough cells | 0.72 | 5424 | inactive |
| ZNF638 | -0.2 | migration z between -2 and 2; enough cells | 0.84 | 6397 | inactive |
| TMEM74B | 0.35 | migration z between -2 and 2; enough cells | 0.98 | 5330 | inactive |
| XKRX | 0.88 | migration z between -2 and 2; enough cells | 1.11 | 5842 | inactive |
| NUDCD3 | -0.34 | migration z between -2 and 2; enough cells | 0.8 | 6858 | inactive |
| GRIA1 | 1.85 | migration z between -2 and 2; enough cells | 1.16 | 6533 | inactive |
| FGF12 | 0.54 | migration z between -2 and 2; enough cells | 0.91 | 6556 | inactive |
| HOXD9 | -1.56 | migration z between -2 and 2; enough cells | 0.5 | 3520 | inactive |
| PLAAT1 | 1.42 | migration z between -2 and 2; enough cells | 1.08 | 5936 | inactive |
| MED28 | -0.78 | migration z between -2 and 2; enough cells | 0.68 | 3332 | inactive |
| NHLH1 | -1.68 | migration z between -2 and 2; enough cells | 0.45 | 5514 | inactive |
| KLHL18 | -1.62 | migration z between -2 and 2; enough cells | 0.46 | 5762 | inactive |
| ELMO3 | 0.26 | migration z between -2 and 2; enough cells | 0.96 | 5462 | inactive |
| MCC | -2.26 | migration z below -2; enough cells | 0.3 | 5010 | active |
| SLC7A14 | -0.8 | migration z between -2 and 2; enough cells | 0.68 | 6000 | inactive |
| ZNF45 | 0.42 | migration z between -2 and 2; enough cells | 0.88 | 5213 | inactive |
| PLA2G4A | -2.96 | under 3300 nuclei; migration not judged | 0.24 | 2718 | inactive |
| ATP11B | 0.24 | migration z between -2 and 2; enough cells | 0.85 | 5720 | inactive |
| TUBE1 | 0.57 | migration z between -2 and 2; enough cells | 0.92 | 6695 | inactive |
| OBP2A | -2.4 | migration z below -2; enough cells | 0.26 | 4844 | active |
